In PubChem BioAssay AID248 (DTP/NCI, 2004):
The list does not hold the whole screen: it is rich in T/C values a quarter to a half above the control, in often repeated tests (any T/C) and in doses without a T/C. Other doses and runs of a compound stand elsewhere. T/C gives the treated animals as a percentage of the vehicle group. Some doses have a count of surviving animals in place of a T/C: the source files T/C as zero there, which appears to mark a toxic dose or a test without result, not a measured value. Some doses without a T/C left all or most animals alive at the check, yet need not have been tolerated: survival well below the control is almost never listed, so the zero probably covers shortened survival too. Survivors were counted at the toxicity check, usually on the fifth day, unless a day is given; later deaths do not show. Schedules are NCI's codes, read here as Q, the interval in days (D) or hours (H), X, the number of doses. Some schedule codes hold Z or #, which are not explained here. Some entries hold several experiments; the results are listed from low to high. For survival time, the PubChem record calls one and a half times the control and up active, and a quarter to a half above the control has no call in these data; cut-offs in other NCI protocols can differ. Some T/C values carry the count of animals alive at the toxicity check (mostly the fifth day); where none is given, no animal had died by that day.

Tested on: L1210 leukemia ip in BDF1 mice, survival T/C
Experiment: NCI In Vivo Anticancer Drug Screen. Data for tumor model L1210 Leukemia (intraperitoneal) in B6D2F1 (BDF1) mice
Settings: T/C endpoint: mean survival time, higher T/C = longer survival
[1] = dose: 20.0 mg/kg/injection, schedule: Q01DX Z (oral), vehicle: water

COc1cc2c3c(c4ccc(OC)c(OC)c4c2cc1OC)CN1CCC[C@@H]1C3
T/C (dose: 2.5 mg/kg/injection, schedule: Q01DX Z (ip), vehicle: water): 127 % of control
T/C (dose: 4.4 mg/kg/injection, schedule: Q01DX Z (ip), vehicle: carboxymethylcellulose (CMC)): 128 % of control
T/C (dose: 4.4 mg/kg/injection, schedule: Q01DX Z (ip), vehicle: other): 126 % of control
T/C (dose: 5.0 mg/kg/injection, schedule: Q01DX Z (im), vehicle: water): 128 % of control
T/C (dose: 5.0 mg/kg/injection, schedule: Q01DX Z (sc), vehicle: water): 133 % of control
T/C (dose: 5.0 mg/kg/injection, schedule: Q02DX Z (ip), vehicle: water): 131 % of control
T/C (dose: 6.6 mg/kg/injection, schedule: Q01DX Z (ip), vehicle: carboxymethylcellulose (CMC)): 128 % of control
T/C (dose: 7.0 mg/kg/injection, schedule: Q01DX Z (ip), vehicle: carboxymethylcellulose (CMC)): 139 % of control
T/C (dose: 7.5 mg/kg/injection, schedule: Q01DX Z (im), vehicle: water): 134 % of control
T/C (dose: 10.0 mg/kg/injection, schedule: Q01DX Z (ip), vehicle: carboxymethylcellulose (CMC)): 101 [4 of 6 alive], 114, 144, 151 % of control
T/C (dose: 10.0 mg/kg/injection, schedule: Q01DX Z (ip), vehicle: other): 141 % of control
T/C (dose: 10.0 mg/kg/injection, schedule: Q01DX Z (ip), vehicle: water): 128 and 142 % of control
T/C (dose: 10.0 mg/kg/injection, schedule: Q01DX Z (oral), vehicle: water): 112, 113, 116, 141 % of control
T/C (dose: 10.0 mg/kg/injection, schedule: Q01DX Z (sc), vehicle: water): 126 % of control
T/C (dose: 10.0 mg/kg/injection, schedule: Q02DX Z (ip), vehicle: water): 135 % of control
T/C (dose: 15.0 mg/kg/injection, schedule: Q01DX005 (iv), vehicle: water): 128 % of control
T/C (dose: 15.0 mg/kg/injection, schedule: Q01DX Z (ip), vehicle: carboxymethylcellulose (CMC)): 87 [5 of 6 alive], 104 [5 of 6 alive], 120 [5 of 6 alive], 138 % of control
survivor count (dose: 15.0 mg/kg/injection, schedule: Q01DX Z (oral), vehicle: water): 6 of 6
T/C (dose: 20.0 mg/kg/injection, schedule: Q01DX005 (iv), vehicle: water): 144 % of control [4 of 6 alive]
survivor count (dose: 20.0 mg/kg/injection, schedule: Q01DX Z (im), vehicle: water): 3 of 6
survivor count (dose: 20.0 mg/kg/injection, schedule: Q01DX Z (ip), vehicle: water): 3 of 6
T/C [1]: 97 % of control
survivor count [1]: 2 of 6, 4 of 6, 6 of 6
survivor count (dose: 20.0 mg/kg/injection, schedule: Q01DX Z (sc), vehicle: water): 6 of 6
T/C (dose: 20.0 mg/kg/injection, schedule: Q02DX Z (ip), vehicle: water): 137 % of control
T/C (dose: 20.0 mg/kg/injection, schedule: Q02DX Z (oral), vehicle: water): 133 % of control
T/C (dose: 20.0 mg/kg/injection, schedule: Q03DX Z (ip), vehicle: water): 131 % of control
survivor count (dose: 24.0 mg/kg/injection, schedule: Q01DX Z (ip), vehicle: water): 3 of 6
survivor count (dose: 30.0 mg/kg/injection, schedule: Q01DX Z (ip), vehicle: water): 0 of 6
survivor count (dose: 30.0 mg/kg/injection, schedule: Q01DX Z (oral), vehicle: water): 0 of 6 and 1 of 6
T/C (dose: 30.0 mg/kg/injection, schedule: Q03DX Z (ip), vehicle: water): 128 and 134 % of control
survivor count (dose: 40.0 mg/kg/injection, schedule: Q01DX005 (iv), vehicle: saline): 0 of 6
survivor count (dose: 40.0 mg/kg/injection, schedule: Q01DX Z (oral), vehicle: water): 0 of 6
survivor count (dose: 40.0 mg/kg/injection, schedule: Q02DX Z (ip), vehicle: water): 3 of 6
survivor count (dose: 40.0 mg/kg/injection, schedule: Q02DX Z (oral), vehicle: water): 2 of 6
T/C (dose: 40.0 mg/kg/injection, schedule: Q03DX Z (ip), vehicle: water): 136 % of control
T/C (dose: 40.0 mg/kg/injection, schedule: Q07DX003 (ip), vehicle: water): 126 % of control [4 of 6 alive]
T/C (dose: 60.0 mg/kg/injection, schedule: Q01DX001 (ip), vehicle: saline): 133 % of control
survivor count (dose: 60.0 mg/kg/injection, schedule: Q01DX005 (iv), vehicle: saline): 0 of 6
survivor count (dose: 60.0 mg/kg/injection, schedule: Q03DX Z (ip), vehicle: water): 0 of 6
T/C (dose: 60.0 mg/kg/injection, schedule: Q07DX Z (ip), vehicle: saline): 138 % of control
T/C (dose: 80.0 mg/kg/injection, schedule: Q01DX001 (ip), vehicle: saline): 136 % of control [5 of 6 alive]
survivor count (dose: 80.0 mg/kg/injection, schedule: Q01DX005 (iv), vehicle: saline): 0 of 6
T/C (dose: 80.0 mg/kg/injection, schedule: Q07DX Z (ip), vehicle: saline): 131 % of control
T/C (dose: 160.0 mg/kg/injection, schedule: Q01DX001 (ip), vehicle: saline): 125 % of control [5 of 6 alive]

Nc1nc2ccc([N+](=O)[O-])cc2s1
survivor count (dose: 200.0 mg/kg/injection, schedule: Q01DX009 (ip), vehicle: Klucel (hydroxypropylcellulose) (HPC)): 0 of 6
survivor count (dose: 400.0 mg/kg/injection, schedule: Q01DX009 (ip), vehicle: Klucel (hydroxypropylcellulose) (HPC)): 0 of 6

C/C=C/CC1(CCC(C)C)C(=O)NC(=O)NC1=O
survivor count (dose: 300.0 mg/kg/injection, schedule: Q01DX001 (ip), vehicle: acetone): 3 of 6
